Data taken from doi:10.1101/2023.11.10.566635.
Results are given in words; binding and its absence hold for the method and conditions named. In cells and extracts the contact can be indirect. Here binding means that the protein was enriched with, or labelled near, the bait; the list need not be complete. Sequences can lack the tags named with a protein.

Target: T1, 3×FLAG-tagged FBXO24 expressed in transgenic mouse testes (mouse) (UniProt Q9D417)
T1 sequence: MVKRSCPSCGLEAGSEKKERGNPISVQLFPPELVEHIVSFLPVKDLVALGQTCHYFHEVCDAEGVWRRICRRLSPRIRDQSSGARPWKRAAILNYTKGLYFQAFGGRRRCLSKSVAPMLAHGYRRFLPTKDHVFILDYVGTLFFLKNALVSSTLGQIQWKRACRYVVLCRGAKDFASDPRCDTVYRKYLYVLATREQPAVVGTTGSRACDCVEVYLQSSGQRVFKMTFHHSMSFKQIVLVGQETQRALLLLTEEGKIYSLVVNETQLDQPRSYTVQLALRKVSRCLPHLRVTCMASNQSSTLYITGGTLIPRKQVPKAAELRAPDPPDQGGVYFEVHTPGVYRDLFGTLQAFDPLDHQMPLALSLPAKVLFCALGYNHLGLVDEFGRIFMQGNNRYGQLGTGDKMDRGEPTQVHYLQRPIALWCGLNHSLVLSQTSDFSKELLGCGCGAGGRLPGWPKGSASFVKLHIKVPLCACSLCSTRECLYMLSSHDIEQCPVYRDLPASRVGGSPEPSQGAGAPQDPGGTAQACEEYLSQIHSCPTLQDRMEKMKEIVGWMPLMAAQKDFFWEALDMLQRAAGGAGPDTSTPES
Test: affinity purification with mass spectrometry; IP of FBXO24-FLAG with anti-FLAG antibody from Fbxo24-FLAG Tg mouse testes; elution with 3×FLAG peptide; mass spectrometry

- binding: binds
B1: IPO5 (importin 5), endogenous in mouse testis (protein, UniProt Q8BKC5 1-1097)
chain: MAAAAAEQQQFYLLLGNLLSPDNVVRKQAEETYENIPGRSKITFLLQAIRNTTAAEEARQMAAVLLRRLLSSAFDEVYPALPSDVQTAIKSELLMIIQMETQSSMRKKICDIAAELARNLIDEDGNNQWPEGLKFLFDSVSSQNMGLREAALHIFWNFPGIFGNQQQHYLDVIKRMLVQCMQDQEHPSIRTLSARATAAFILANEHNVALFKHFADLLPGFLQAVNDSCYQNDDSVLKSLVEIADTVPKYLRPHLEATLQLSLKLCGDTNLNNMQRQLALEVIVTLSETAAAMLRKHTSLIAQTIPQMLAMMVDLEEDEDWANADELEDDDFDSNAVAGESALDRMACGLGGKLVLPMIKEHIMQMLQNPDWKYRHAGLMALSAIGEGCHQQMEGILNEIVNFVLLFLQDPHPRVRYAACNAVGQMATDFAPGFQKKFHEKVIAALLQTMEDQGNQRVQAHAAAALINFTEDCPKSLLIPYLDNLVKHLHSIMVLKLQELIQKGTKLVLEQVVTSIASVADTAEEKFVPYYDLFMPSLKHIVENAVQKELRLLRGKTIECISLIGLAVGKEKFMQDASDVMQLLLKTQTDFNDMEDDDPQISYMISAWARMCKILGKEFQQYLPVVMGPLMKTASIKPEVALLDTQDMENMSDDDGWEFVNLGDQQSFGIKTAGLEEKSTACQMLVCYAKELKEGFVEYTEQVVKLMVPLLKFYFHDGVRVAAAESMPLLLECARVRGPEYLTQMWHFMCDALIKAIGTEPDSDVLSEIMHSFAKCIEVMGDGCLNNEHFEELGGILKAKLEEHFKNQELRQVKRQDEDYDEQVEESLQDEDDNDVYILTKVSDILHSIFSSYKEKVLPWFEQLLPLIVNLICPQRPWPDRQWGLCIFDDIVEHCSPASFKYAEYFISPMLQYVCDNSPEVRQAAAYGLGVMAQFGGDNYRPFCTDALPLLVRVIQAPEAKTKENVNATENCISAVGKIMKFKPDCVNVEEVLPHWLSWLPLHEDKEEAVQTFSYLCDLIESNHPIVLGPNNTNLPKIFSIIAEGEMHEAIKHEDPCAKRLANVVRQVQTSGGLWTECIAQLSPEQQAAIQELLNSA
